Laboratory results: PubChem BioAssay AID1259308 (NCATS, 2017)

- Purpose: 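Genes whose loss raises luciferase production in HEK293 cells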 (primary screen)
- Cell system: human HEK293 embryonic kidney cells stably expressing firefly luciferase (HEK-CMV-Luc2-Hygro)
- Reagent: single siRNA against human genes, 0.8 pmol siRNA per well
- Duration: 72 h
- Detection: 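Luciferase light (ONE-Glo) measured on one replicate plate set and viability (CellTiter-Glo) on the other, scaled to a negative control siRNA, with robust z-scores and luciferase per cell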
- Reading the numbers: total luciferase, z-score and total luciferase, % of control: higher = more reporter protein produced
- Call rule: 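Active when the median/MAD z-score for overall luciferase is greater than 3; a gene was taken forward for validation with new siRNAs if at least two of its three siRNAs passed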
- Meaning of the calls: active = raised luciferase; inactive = no rise
This is an unselected part of about 59,000 deposited reagents. About 1,510 of them (2.6%) were called active. 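Calls use total luciferase alone and ignore viability, so some active siRNAs may act by altering cell number.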 Unmarked entries are inactive. The numbers tell different reagents against one gene apart. Not all columns of the deposit are shown.

| target | reagent no. | total luciferase, z-score | total luciferase, % of control |
| --- | --- | --- | --- |
| ADD3 | 1 | -2.33 | 35.6 |
| ADD3 | 2 | -0.952 | 63 |
| ADD3 | 3 | -0.598 | 70 |
| ADSL | 1 | -0.193 | 78.1 |
| ADSL | 2 | 0.0463 | 82.8 |
| ADSL | 3 | -0.0596 | 80.7 |
| MED8 | 1 | -1.64 | 49.2 |
| MED8 | 2 | -2.06 | 40.9 |
| MED8 | 3 | -0.724 | 67.5 |
| SGPP2 | 1 | 0.0214 | 82.3 |
| SGPP2 | 2 | -0.0239 | 81.4 |
| SGPP2 | 3 | 0.411 | 90.1 |
| HOMER1 | 1 | 2.48 | 131 |
| HOMER1 | 2 | -0.451 | 72.9 |
| HOMER1 | 3 | -0.227 | 77.4 |
| NBPF14 | 1 | -1.44 | 53.3 |
| NBPF14 | 2 | 1.24 | 106 |
| NBPF14 | 3 | 0.106 | 84 |
| IDUA | 1 | -2.95 | 23.2 |
| IDUA | 2 | -0.202 | 77.9 |
| IDUA | 3 | 1.12 | 104 |
| ZFPL1 | 1 | -1.09 | 60.3 |
| ZFPL1 | 2 | -0.815 | 65.7 |
| ZFPL1 | 3 | 0.579 | 93.4 |

Ordered by “total luciferase, % of control” (lowest first): 7 of the entries above
| target | reagent no. | total luciferase, z-score | total luciferase, % of control |
| --- | --- | --- | --- |
| IDUA | 1 | -2.95 | 23.2 |
| NBPF14 | 1 | -1.44 | 53.3 |
| ZFPL1 | 1 | -1.09 | 60.3 |
| IDUA | 2 | -0.202 | 77.9 |
| NBPF14 | 3 | 0.106 | 84 |
| IDUA | 3 | 1.12 | 104 |
| NBPF14 | 2 | 1.24 | 106 |

More entries follow:
| target | reagent no. | total luciferase, z-score | total luciferase, % of control |
| --- | --- | --- | --- |
| TLE3 | 1 | -0.119 | 79.5 |
| TLE3 | 2 | -0.179 | 78.3 |
| TLE3 | 3 | 1.68 | 115 |
| DBNL | 1 | -0.0892 | 80.1 |
| DBNL | 2 | 0.589 | 93.6 |
| DBNL | 3 | -1.17 | 58.5 |
| LHCGR | 1 | -1.32 | 55.7 |
| LHCGR | 2 | -0.901 | 64 |
| LHCGR | 3 | -1.04 | 61.2 |
| IMPA2 | 1 | 0.449 | 90.8 |
| IMPA2 | 2 | 2.51 | 132 |
| IMPA2 | 3 | -0.527 | 71.4 |
| SF3A1 | 1 | 3.58 (active) | 153 |
| SF3A1 | 2 | 2.32 | 128 |
| SF3A1 | 3 | 0.0376 | 82.6 |
| ITGB5 | 1 | 0.0344 | 82.6 |
| ITGB5 | 2 | 0.188 | 85.6 |
| ITGB5 | 3 | -1.58 | 50.5 |
| PLLP | 1 | 2.83 | 138 |
| PLLP | 2 | 0.298 | 87.8 |
| PLLP | 3 | -0.0732 | 80.4 |
| SNTA1 | 1 | 0.197 | 85.8 |
| SNTA1 | 2 | -0.293 | 76.1 |
| SNTA1 | 3 | 2.85 | 139 |
| BCL2A1 | 1 | 0.378 | 89.4 |
| BCL2A1 | 2 | 0.515 | 92.1 |
| BCL2A1 | 3 | 0.761 | 97 |
| UNC50 | 1 | -0.203 | 77.8 |
| UNC50 | 2 | -0.518 | 71.6 |
| UNC50 | 3 | 0.454 | 90.9 |
| CD68 | 1 | 2.01 | 122 |
| CD68 | 2 | -1.69 | 48.3 |
| CD68 | 3 | 0.219 | 86.3 |
